Values of other authors, collected in patent publication US6579860B1, “Interleukin-6 production inhibitors” (Toray Industries, Inc., priority 1998, dated 2003).

Tested on: interleukin-6 concentration in serum
Details: administration to Paget's disease patients; Schweitzer D H. et al., J. Bone and Miner. Res. 10(6)

NCCCC(O)(P(=O)(O)O)P(=O)(O)O [alendronate]
effect on interleukin-6 concentration in serum: increased interleukin-6 concentration in serum
